For the data set, the target named is RAD51 (UniProt Q06609). Put plainly: EMSA. Conditions: 2 mM ATP, 5 mM CaCl2, RAD51 up to at least 1000 nM, 10 nM DNA. RAD51: 20 mM Tris-HCl pH 8.0, 30 mM NaCl, 1 mM DTT, 5 mM CaCl2, 0.2% Tween 20, 37 C 15 min. BG4: 20 mM Tris-HCl pH 8.0, 30 mM KCl, 1 mM MgCl2, commercial protein, residues 1-339, folded or branched DNA. (In general: Mobility shift assays separate free from complexed probe on a gel.)

The chains behind the UniProt entries cited, without tags or fusion partners.
UniProt Q06609, whole entry: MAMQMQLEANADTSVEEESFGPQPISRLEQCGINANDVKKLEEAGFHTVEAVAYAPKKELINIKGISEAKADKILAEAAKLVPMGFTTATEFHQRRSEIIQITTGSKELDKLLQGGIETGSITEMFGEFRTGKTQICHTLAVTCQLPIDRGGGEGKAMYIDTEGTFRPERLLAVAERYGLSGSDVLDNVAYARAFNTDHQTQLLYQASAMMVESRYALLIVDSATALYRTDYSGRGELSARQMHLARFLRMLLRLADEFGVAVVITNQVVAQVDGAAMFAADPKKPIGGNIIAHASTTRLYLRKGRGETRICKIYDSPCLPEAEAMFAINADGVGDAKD

No signal at the amounts used counts as a negative. At least one verdict rests on a figure or table, not on a statement of the authors.

Regarding AGGGAGGGCGCTGGGAGGAGGG [c-KIT G4], the binding result is “no binding”.
